One substance from publication PMC10920805 can be followed below.

The target in experiment [1] is T1, RIOK3 (human (endogenous in HCT116)) (UniProt O14730).
T1 sequence: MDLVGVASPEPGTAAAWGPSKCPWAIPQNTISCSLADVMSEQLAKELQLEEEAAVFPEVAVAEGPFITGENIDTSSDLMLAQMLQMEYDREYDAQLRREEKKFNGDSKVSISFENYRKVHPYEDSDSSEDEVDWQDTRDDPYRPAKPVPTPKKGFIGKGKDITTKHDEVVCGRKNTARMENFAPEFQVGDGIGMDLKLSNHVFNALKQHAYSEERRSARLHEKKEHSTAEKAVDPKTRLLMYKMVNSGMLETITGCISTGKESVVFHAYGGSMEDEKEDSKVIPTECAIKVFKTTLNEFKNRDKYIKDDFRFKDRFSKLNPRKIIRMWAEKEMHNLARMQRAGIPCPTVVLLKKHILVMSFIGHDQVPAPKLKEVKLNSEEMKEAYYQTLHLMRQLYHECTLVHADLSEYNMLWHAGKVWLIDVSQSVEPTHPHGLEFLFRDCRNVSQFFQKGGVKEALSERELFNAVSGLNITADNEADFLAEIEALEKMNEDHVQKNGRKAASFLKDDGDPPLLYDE
As to the kind of experiment: co-IP; HCT116 cell lysates, endogenous proteins, immunoprecipitated with anti-RIOK3 antibody; lysis buffer 0.5% NP-40, 150 mM NaCl, 50 mM Tris pH 7.5, 5 mM EDTA; antibody overnight at 4 °C, Protein A + G Agarose.

Another experiment deals with T2, flag-RIOK3 (UniProt O14730).
T2 sequence: T1 sequence
As to the kind of experiment: co-IP; lysates of HCT116 cells transfected with flag-RIOK3 (24 h), immunoprecipitated with anti-flag antibody, blotted with anti-HSP90α; lysis buffer 0.5% NP-40, 150 mM NaCl, 50 mM Tris pH 7.5, 5 mM EDTA; antibody overnight at 4 °C, Protein A + G Agarose.

Results are given in words; binding and its absence hold for the method and conditions named. Binding seen in cells or lysates may run through a third protein. Some results given as binding are weak or reduced against the parent protein; the word gives no strength. For some assays here: Tags and fused reporters may be left off the sequences shown.

With “heat shock protein 90α (from UniProt P07900 1-732)”, the binding entry (in experiment [1]; with flag-RIOK3) was “binds” throughout.
